Source: PubChem BioAssay AID1487 (National Center for Advancing Translational Sciences (NCATS), 2009)
The list shows a part of the results. The main result of the screen is listed elsewhere. These columns were measured beside it and carry no call. Compounds called inactive in the main read-out are mostly missing here. The note in brackets gives the kind of curve behind each potency; many fits are weak.

Experiment: qHTS Assay for Modulators of Lamin A Splicing
Conditions: HeLa LMNA splicing GFP/RFP minigene ratio, 48 h
Method in brief: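 Read-out is the ratio of GFP to DsRed2 object intensity, acquired by 488 nm laser-scanning cytometry on HeLa lamin A-EGFP minigene reporter cells. Compound incubation 48 hrs at 37 °C in Opti-MEM with 2% FBS; DMSO 0.5% final.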

[1] = measured here: GFP splicing reporter channel
[2] = measured here: RFP viability control channel

SMILES | AC50 [1] | AC50 [2]
CCOC(=O)C(C(C)=O)c1c(Br)c(O)c(O)c2c(C(=O)c3ccc(C)cc3)coc12 (configuration not stated) | 20 µM [falling, single point] | 25.1 µM [falling, single point]
CC(C)c1ccccc1-n1c(SCC(=O)c2ccc3c(c2)NC(=O)CO3)nc2ccccc2c1=O | 4.47 µM [rising, full curve, poor fit] | 14.1 µM [rising, partial curve]
Cc1ccc(CN2CCN(/N=C/c3ccc(C(=O)O)cc3)CC2)cc1 | – | 0.1 µM [falling, partial curve, poor fit]
CC(C)(C)c1ccc(-c2csc(NC(=O)CN3C(=O)NC4(CCCCC4)C3=O)n2)cc1 | – | 11.2 µM [rising, partial curve]
CCn1c(COc2ccc(C)cc2)nnc1SCC(=O)NNC(=O)c1ccc(OC)cc1 | – | 22.4 µM [rising, single point]
CC1=C(C(=O)Nc2ccc(C)cc2)C(c2ccc(Cl)cc2)n2nnnc2N1 (configuration not stated) | – | 20 µM [rising, single point]
COc1cccc(-n2nnc3c(=O)n(CC(=O)N4CCC(Cc5ccccc5)CC4)cnc32)c1 | – | 0.00447 µM [falling, full curve, poor fit]
COc1cccc(CC(NC(C)=O)C(=O)NC2CCN(C(=O)C3CC3)CC2)c1OC (configuration not stated) | 0.794 µM [falling, full curve, poor fit] | 0.0178 µM [falling, full curve, poor fit]
O=C(Nc1ccc(-c2nc3cccnc3s2)cc1)c1ccco1 | – | 14.1 µM [rising, single point]
C/C(CCN1CCCCc2nc(C)c(C)cc21)=N\O[C@@H](C)CN1CCCCc2nc(C)c(C)cc21 | 35.5 µM [rising, single point] | 17.8 µM [rising, single point]
CCCCn1nc2cc(C(=O)N[C@H](C)C3CCCCC3)ccc2c1OCC | – | 14.1 µM [rising, partial curve, poor fit]
C=CCC(=O)N1CCCC(CNC(=O)c2ccc(-c3ccccc3)cc2)C1 (configuration not stated) | – | 10 µM [falling, partial curve, poor fit]
CCOc1ccccc1/C=N/NC(=O)c1cccc(Cl)c1 | – | 6.31 µM [rising, partial curve, poor fit]
c1ccc(-c2nc3cc4ccccc4cc3[nH]2)nc1 | – | 0.141 µM [rising, full curve, poor fit]
COc1cccc(/C=N/Nc2cc(-n3nc(C)cc3-c3ccccc3)ncn2)c1O | – | 11.2 µM [rising, partial curve]
COc1ccc(C(=O)Nc2nnc(S(=O)(=O)N(CC(C)C)c3ccccc3)s2)cc1 | – | 5.62 µM [falling, partial curve, poor fit]
CCN(CC)S(=O)(=O)c1ccc(C)c(NC(=O)Cn2c(=O)cnc3ccccc32)c1 | 35.5 µM [rising, single point] | 35.5 µM [rising, single point]
COc1ccc(OC)c(C2C(C(=O)Nc3ccccc3OC)=C(C)Nc3c(C(=O)Nc4ccc(F)cc4)cnn32)c1 (configuration not stated) | – | 0.0891 µM [rising, full curve, poor fit]

SMILES | AC50 [1] | AC50 [2]
C/C(=N/N1CCN(Cc2cccc3ccccc23)CC1)c1cccnc1 | 0.158 µM [rising, full curve, poor fit] | –
O=C(NNC(=S)NC1CCCCC1)c1cccc(S(=O)(=O)Nc2ccccc2Cl)c1 | – | 25.1 µM [rising, partial curve]
Cc1sc2nc(CN3CCCC3)nc(NCc3ccncc3)c2c1C | – | 7.94 µM [rising, partial curve, poor fit]
Cc1n[nH]c(C)c1S(=O)(=O)N1CCCC(C(=O)NCc2ccccc2Cl)C1 (configuration not stated) | 11.2 µM [rising, single point] | 14.1 µM [rising, single point]
CCCc1cc(C(=O)Nc2cc(Br)ccc2O)no1 | – | 35.5 µM [rising, single point]
Cc1ccc2nc(NC(=O)CCn3c(=O)sc4ccccc43)sc2c1 | – | 12.6 µM [rising, single point]
O=C(Nc1cccc(F)c1)c1ccc(-c2ccccc2C(F)(F)F)o1 | 14.1 µM [rising, single point] | 14.1 µM [rising, partial curve]
COc1ccc(NS(=O)(=O)c2ccc3oc(Nc4ccc5c(c4)OCCO5)nc3c2)cc1 | – | 7.08 µM [rising, partial curve]
Cc1ccccc1NC(=O)C(NC1CCCCC1)C(C)C (configuration not stated) | 0.0891 µM [falling, full curve, poor fit] | 0.0891 µM [falling, full curve]
Fc1cccc(Cl)c1CSc1ccc2nnc(-c3ccccn3)n2n1 | – | 2.82 µM [rising, single point]
Cc1ccc(-n2nnc3c(=O)n(Cc4cccc(C)c4)cnc32)cc1 | – | 2.24 µM [rising, partial curve, poor fit]
O=C(CSC1=NCCN1)NC12CC3CC(CC(C3)C1)C2 | 14.1 µM [rising, single point] | 15.8 µM [rising, partial curve]
CCCCNC(=S)NCc1ccc2[nH]c(C)cc2c1 | – | 20 µM [rising, single point]
Cc1cccc(-c2nc(SCC(=O)NCc3ccco3)c3c(=O)n(C)c(=O)n(C)c3n2)c1 | 20 µM [rising, partial curve, poor fit] | 22.4 µM [rising, single point]
CC(c1ccccc1)n1c(SCC(=O)N2CC(=O)Nc3ccccc32)nc2ccccc2c1=O (configuration not stated) | 35.5 µM [rising, single point] | –
Cc1nc(-c2c(-c3ccc(O)cc3O)noc2C(F)(F)F)cs1 | – | 14.1 µM [rising, single point]
CCOC(=O)c1sc(NC(=O)Cc2ccc(C)cc2)nc1C | – | 0.00398 µM [falling, full curve, poor fit]
CC1=CC(C)(C)N(S(=O)(=O)c2ccc(C)cc2)c2cc(C)ccc21 | 5.01 µM [falling, full curve, poor fit] | 0.01 µM [falling, full curve, poor fit]

Looked up one by one from the list above, 2 records:
SMILES | AC50 [1] | AC50 [2]
C/C(=N/N1CCN(Cc2cccc3ccccc23)CC1)c1cccnc1 | 0.158 µM [rising, full curve, poor fit] | –
CCCCNC(=S)NCc1ccc2[nH]c(C)cc2c1 | – | 20 µM [rising, single point]
